In assay [1] the target is GST-tagged IRS1-N (aa 2-516) (UniProt P35570). Briefly: GST pulldown with GST-IRS1-N (FIG. 19A).
The target is the same in assay [2]. The experiment in a line: GST pulldown with GST-IRS1-N, anti-His immunoblot.

By UniProt entry, the sequences of proteins in these tests, tags left out. Residues count along the entry.
UniProt P35570, residues 2-516: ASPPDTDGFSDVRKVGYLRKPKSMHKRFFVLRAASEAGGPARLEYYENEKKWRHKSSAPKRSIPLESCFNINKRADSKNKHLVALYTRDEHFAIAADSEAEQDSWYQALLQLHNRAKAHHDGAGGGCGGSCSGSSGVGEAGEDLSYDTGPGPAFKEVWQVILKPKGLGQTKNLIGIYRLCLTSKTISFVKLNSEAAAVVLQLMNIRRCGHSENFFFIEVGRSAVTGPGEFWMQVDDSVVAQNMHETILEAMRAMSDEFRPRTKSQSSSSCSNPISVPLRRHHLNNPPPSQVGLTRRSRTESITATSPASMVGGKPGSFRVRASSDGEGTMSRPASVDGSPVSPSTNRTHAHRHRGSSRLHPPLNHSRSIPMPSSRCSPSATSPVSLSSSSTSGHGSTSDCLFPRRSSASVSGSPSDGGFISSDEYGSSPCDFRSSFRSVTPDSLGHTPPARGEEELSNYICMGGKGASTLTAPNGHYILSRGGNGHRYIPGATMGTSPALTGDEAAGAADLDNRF

No constants are given. Whether binding was seen depends on the method and setting. In cells and extracts the contact can be indirect. Some results given as binding are weak or reduced against the parent protein; the word gives no strength. Sequences can lack the tags named with a protein.

B1: His-tagged GIV-CT-SD (protein, not shown: small tags and cut ends)
chain: SETLESRHHKIKTGSPGSEVVTLQQFLEEDNKLTSVQIKSSSQENLLDEVMKSLSVSSDFLGKDKPVSCGLARSVSGKTPGDFYDRRTTKPEFLRPGPRKTEDTYFISSAGKPTPGTQGKIKLVKESSLSRQSKDSNPYATLPRASSVISTAEGTTRRTSIHDFLTKDSRLPISVDSPPAAADSNTTAASNVDKVQESRNSKSRSREQQSS
Take B1: the binding entry in assay [1] and in assay [2] was “binds” throughout.

These data come from patent US20180104307A1 (University of California, published 2018).
